Results published in US20240075033A1, “ALK5 INHIBITORS FOR TREATING MYELODYSPLASTIC SYNDROME” (Sumitomo Pharma Oncology, Inc., priority 2019, published 2024).
Counter-ions that a name gives are not always drawn. Some of these results come from one statement about several compounds together.

Experiment: Hygroscopicity (DVS tests)
Format: physicochemical
Conditions: class based on water uptake at 25° C./80% RH; listed as HCl salt Form A

## COc1cc(Nc2nccc(Nc3cccnc3-c3ccccn3)n2)ccc1N1CCN(C)CC1 [HCl Salt Form A]
  Hygroscopicity: slightly hygroscopic (slightly hygroscopic - 0.2~2%)
